The campaign covered roughly 360,000 compounds. About 7,500 (2.1%) were called active. Inconclusive means that the source gave no clear call. Such entries were picked first, then a sample of the others. Calls follow the shape of the dose curve; as a rule, active = well fitted inhibition curve with a large enough effect; inconclusive = small, poorly fitted or top-dose-only effect, or effect the other way; inactive = flat fitted curve, though single readings scatter. Where the call is inconclusive, the potency comes from a doubtful curve fit.
experiment: Nrf2 qHTS screen for inhibitors; details: A549 ARE-Fluc reporter, luciferase luminescence, 18-24 h; series mostly up to 46 µM; also: nearly all actives have a fitted effect of over 60% in size
Method in brief: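 In this cell-based qHTS, ARE-driven firefly luciferase in A549 cells reports Nrf2 activity; the luminescent signal after BugLite lysis is the measured value, with a prior CellTiter-Fluor read for cell health.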
Potency is read from the fitted curve at half-maximal effect.

| SMILES | Potency |
| --- | --- |
| CC(=O)N1c2ccc3ccccc3c2C(C)CC12CCCCC2 (configuration not stated) | inconclusive: 14.6 µM [falling, partial curve, poor fit] |
| Cc1ccc(-c2n[nH]c(=O)c3ccccc23)cc1S(=O)(=O)Nc1ccc(F)cc1 | inconclusive: 11.6 µM [falling, partial curve] |
| C=CCn1c(O)c(/C=C2\C=NN=C2c2ccccc2)sc1=S | inconclusive: 29.1 µM [falling, single point] |
| Cc1ccc2nc(NNC(=O)c3ccc(S(=O)(=O)N4CCc5ccccc5C4)cc3)sc2c1 | inconclusive: 4.11 µM [falling, full curve, poor fit] |
| O=C1/C(=C/c2cccnc2)SC(=S)N1Cc1ccco1 | inactive |
| COc1ccccc1NC1=C(N2CCCCC2)C(=O)c2ccccc2C1=O | inconclusive: 29.1 µM [falling, single point] |
| CC(C)(C)OC(=O)[C@H](Cc1ccccc1)NC(=O)c1[nH]cnc1C(=O)Nc1cccc(Cl)c1 | inconclusive: 32.6 µM [falling, single point] |
| Cc1cccc(NC(=O)CSc2nnc(CSc3nc(C)cc(C)n3)n2Cc2ccco2)c1 | inconclusive: 32.6 µM [falling, partial curve, poor fit] |
| O=C(Nc1ccc(Cc2ccncc2)cc1)C1CCC(N2C(=O)C3CCCCC3C2=O)CC1 (configuration not stated) | inconclusive: 16.4 µM [falling, single point] |
| Cc1ccc(CN2CCCC(CO)(Cc3ccccc3C)C2)s1 (configuration not stated) | inconclusive: 16.4 µM [activator, single point] |
| O=C(CN1C(=O)C2(SCC(=O)N2c2cccc(F)c2)c2ccccc21)NCCc1ccccc1 (configuration not stated) | inconclusive: 13 µM [activator, partial curve, poor fit] |
| O=C1N[C@@H](c2ccccc2)COC(=O)[C@@H](Cc2ccc(F)cc2)CC/C=C/C[C@H]1CC(=O)N(CCO)Cc1ccccc1 | inconclusive: 20.6 µM [falling, single point] |
| CC1CC2C(C(O)CC3(C)C2CCC3(O)C(=O)CO)C2(C)C=CC(=O)C=C12 (configuration not stated) | active: 0.0461 µM |
| O=C(CCC1CCCC1)N1CCN(C2CCCC2)CC1 | inconclusive: 14.6 µM [activator, single point] |
| Cc1ccccc1C(=O)OCc1cc(=O)n2nc(C3CCCCC3)sc2n1 | inconclusive: 6.51 µM [activator, full curve, poor fit] |
| Cc1csc(NC(=O)c2ccc(N3CCCC3=O)cc2)n1 | inconclusive: 16.4 µM [falling, single point] |
| CCOc1ccccc1N(C(=O)c1snc(C(N)=O)c1N)C(C(=O)NCCC(C)C)c1ccco1 (configuration not stated) | active: 25.9 µM |
| O=C(Nc1ccc(Oc2cccnc2)nc1)c1ccc(C(F)(F)F)cc1 | active: 5.8 µM |
| COc1ccc(NC(=O)[C@H](Cc2c[nH]c3ccccc23)NC(=O)[C@@H]2Cc3ccccc3CN2)cc1 | inconclusive: 29.1 µM [activator, single point] |
| CC(C)(C)c1ccc(OCCCC(=O)Nc2cccc(S(=O)(=O)N3CCOCC3)c2)cc1 | inconclusive: 29.1 µM [falling, single point] |
| COc1ccccc1Cn1c(=S)[nH]c2cc(C(=O)N3CCCC3)ccc2c1=O | inconclusive: 29.1 µM [falling, single point] |

Quoted from above (17 entries):

| SMILES | Potency |
| --- | --- |
| Cc1ccc(-c2n[nH]c(=O)c3ccccc23)cc1S(=O)(=O)Nc1ccc(F)cc1 | inconclusive: 11.6 µM [falling, partial curve] |
| C=CCn1c(O)c(/C=C2\C=NN=C2c2ccccc2)sc1=S | inconclusive: 29.1 µM [falling, single point] |
| Cc1ccc2nc(NNC(=O)c3ccc(S(=O)(=O)N4CCc5ccccc5C4)cc3)sc2c1 | inconclusive: 4.11 µM [falling, full curve, poor fit] |
| O=C1/C(=C/c2cccnc2)SC(=S)N1Cc1ccco1 | inactive |
| COc1ccccc1NC1=C(N2CCCCC2)C(=O)c2ccccc2C1=O | inconclusive: 29.1 µM [falling, single point] |
| CC(C)(C)OC(=O)[C@H](Cc1ccccc1)NC(=O)c1[nH]cnc1C(=O)Nc1cccc(Cl)c1 | inconclusive: 32.6 µM [falling, single point] |
| Cc1cccc(NC(=O)CSc2nnc(CSc3nc(C)cc(C)n3)n2Cc2ccco2)c1 | inconclusive: 32.6 µM [falling, partial curve, poor fit] |
| O=C(Nc1ccc(Cc2ccncc2)cc1)C1CCC(N2C(=O)C3CCCCC3C2=O)CC1 (configuration not stated) | inconclusive: 16.4 µM [falling, single point] |
| Cc1ccc(CN2CCCC(CO)(Cc3ccccc3C)C2)s1 (configuration not stated) | inconclusive: 16.4 µM [activator, single point] |
| O=C(CN1C(=O)C2(SCC(=O)N2c2cccc(F)c2)c2ccccc21)NCCc1ccccc1 (configuration not stated) | inconclusive: 13 µM [activator, partial curve, poor fit] |
| O=C1N[C@@H](c2ccccc2)COC(=O)[C@@H](Cc2ccc(F)cc2)CC/C=C/C[C@H]1CC(=O)N(CCO)Cc1ccccc1 | inconclusive: 20.6 µM [falling, single point] |
| CC1CC2C(C(O)CC3(C)C2CCC3(O)C(=O)CO)C2(C)C=CC(=O)C=C12 (configuration not stated) | active: 0.0461 µM |
| O=C(CCC1CCCC1)N1CCN(C2CCCC2)CC1 | inconclusive: 14.6 µM [activator, single point] |
| Cc1ccccc1C(=O)OCc1cc(=O)n2nc(C3CCCCC3)sc2n1 | inconclusive: 6.51 µM [activator, full curve, poor fit] |
| Cc1csc(NC(=O)c2ccc(N3CCCC3=O)cc2)n1 | inconclusive: 16.4 µM [falling, single point] |
| CCOc1ccccc1N(C(=O)c1snc(C(N)=O)c1N)C(C(=O)NCCC(C)C)c1ccco1 (configuration not stated) | active: 25.9 µM |
| O=C(Nc1ccc(Oc2cccnc2)nc1)c1ccc(C(F)(F)F)cc1 | active: 5.8 µM |

Continued:

| SMILES | Potency |
| --- | --- |
| Clc1ccc(-c2nnc(NCc3ccccc3)c3ccccc23)cc1 | inconclusive: 20.6 µM [falling, single point] |
| CCOc1ccc(-c2cc(C(=O)NCCCN3CCCC3)c3ccccc3n2)cc1 | inconclusive: 16.4 µM [activator, partial curve, poor fit] |
| O=C(O/N=C\c1ccc(N2CCCCC2)c([N+](=O)[O-])c1)c1cccc(Cl)c1 | inactive |
| Cc1ccc(-c2nnn(CC(=O)N(Cc3cccs3)C(C(=O)NC3CCCC3)c3ccncc3)n2)cc1 (configuration not stated) | active: 6.51 µM |
| CCC(c1nnnn1Cc1ccccc1)N(Cc1ccccc1)Cc1cc2cc(C)ccc2[nH]c1=O (configuration not stated) | active: 4.11 µM |
| O=C(c1cc(-c2ccc(F)cc2)on1)N1CCCC1 | inconclusive: 1.46 µM [activator, full curve, poor fit] |
| CCOc1cc(/C=N/NC(=O)CSc2nncn2C)ccc1OCC(N)=O | inactive |
| CCOc1ccc(-c2nnc(-c3ccncc3)o2)cc1 | inconclusive: 3.66 µM [activator, partial curve, poor fit] |
| O/N=C\c1ccc(-c2ccccc2)o1 | inconclusive: 9.2 µM [activator, partial curve, poor fit] |
| CCN(C(=O)CSc1nc2ccccc2c(=O)n1Cc1ccc(C)cc1)C1CCS(=O)(=O)C1 (configuration not stated) | inconclusive: 32.6 µM [falling, partial curve, poor fit] |
| NC(=O)CC(NC(=O)Cc1cccc2ccccc12)c1ccc(N2CCCCCCC2)c([N+](=O)[O-])c1 (configuration not stated) | inconclusive: 29.1 µM [falling, single point] |
| O=C(COC(=O)C1(c2ccccc2)CC1)N1CCN(c2ccc(F)cc2)CC1 | inconclusive: 23.1 µM [falling, partial curve] |
| CC1=C(Sc2nc3ccccc3[nH]2)C(=O)NC(C)(C)C1 | inconclusive: 23.1 µM [activator, single point] |
| N=C1/C(=C\c2ccc(SCc3ccco3)o2)C(=O)N=C2SC=NN12 | inconclusive: 6.51 µM [activator, full curve] |
| N=c1n(CCN2CCOCC2)c2ccccc2n1CC(=O)c1ccc(Cl)c(Cl)c1 | inconclusive: 32.6 µM [falling, single point] |
| Cc1cc(C)cc(NC(=O)CSc2cc(C(=O)c3nccn3C)c3ccccc3n2)c1 | inconclusive: 29.1 µM [falling, single point] |
| Oc1ccccc1N1CCN(c2ncccn2)CC1 | inconclusive: 29.1 µM [activator, single point] |
| COc1ccccc1NC(=O)CSc1ccc(-c2ccc(-n3cccn3)cc2)nn1 | inconclusive: 1.3 µM [activator, partial curve, poor fit] |
| O=[N+]([O-])c1ccccc1/C=C/C=N/N1CCCCC1 | inconclusive: 9.2 µM [activator, partial curve] |
| COc1ccccc1C(=O)Nc1ccc2c(c1)OCO2 | inconclusive: 9.2 µM [activator, partial curve, poor fit] |
| CCSc1ccc2nnc(-c3ccc(F)cc3)n2n1 | inconclusive: 16.4 µM [falling, partial curve, poor fit] |

| SMILES | Potency |
| --- | --- |
| COc1ccc2c(CC(=O)NCc3ccc4c(c3)OCO4)coc2c1 | inconclusive: 23.1 µM [falling, single point] |
| COC(=O)c1ccc(Cl)c(NC(=O)NC23CC4CC(CC(C4)C2)C3)c1 | inconclusive: 32.6 µM [falling, single point] |
| CCN(CC)S(=O)(=O)c1cccc(NC(=O)COc2ccc(Cl)cc2Br)c1 | inconclusive: 10.3 µM [falling, partial curve, poor fit] |
| COC(=O)[C@@H](CC(C)C)NS(=O)(=O)N(Cc1ccccc1)[C@@H](CC(C)C)C(=O)OC | inconclusive: 20.6 µM [falling, single point] |
| C/C(=N/NC(=O)c1cccs1)c1cccc(N)c1 | inconclusive: 6.51 µM [activator, full curve] |
| O=C(Cc1ccc(Cl)cc1)Nc1ccc(Br)cn1 | inactive |
| Cc1ccc(S(=O)(=O)Nc2ccc(O)c3ccccc23)c(C)c1 | inactive |
| COC(=O)[C@@]12CCCN1[C@H](c1ccc(-c3ccc(Cl)c(Cl)c3)cc1)[C@H]1C(=O)N(C)C(=O)[C@H]12 | inconclusive: 29.1 µM [falling, single point] |
| O=C(/C=C(\c1ccc(Cl)cc1)n1cncn1)c1ccc(Cl)cc1 | inconclusive: 29.1 µM [falling, single point] |
| O=C(Cn1cnc2ccccc2c1=O)N1CCN(Cc2ccc3c(c2)OCO3)CC1 | inconclusive: 0.58 µM [falling, partial curve, poor fit] |
| COc1ccc2c(c1OC)C(=O)N1c3ccccc3SC21 (configuration not stated) | inconclusive: 5.8 µM [activator, full curve] |
| O=C1N[C@@H](Cc2ccccc2)COC(=O)[C@H](Cc2ccc(F)cc2)CC/C=C/C[C@H]1CC(=O)N(CCO)Cc1ccccc1 | active: 23.1 µM |
| COc1cccc(C(=O)NC(=O)Nc2cc(C)on2)c1 | inconclusive: 9.2 µM [activator, partial curve, poor fit] |
| CC(=O)c1ccc(OCc2cc(C(=O)N3CC[C@@H]4CCCC[C@H]4C3)no2)cc1 | inconclusive: 2.91 µM [activator, partial curve, poor fit] |
| CCn1cc(C(=O)NC(=S)Nc2ccccc2[N+](=O)[O-])cn1 | inconclusive: 0.82 µM [activator, full curve] |
| COc1cc(OC)c(OC)cc1/C=C/C(=O)c1ccc(NS(=O)(=O)c2ccc(C)cc2)cc1 | inconclusive: 29.1 µM [falling, single point] |
| O=C(CCC(=O)c1ccc(Oc2ccccc2)cc1)Nc1ccc(Cl)cc1Cl | inconclusive: 23.1 µM [falling, single point] |
| COc1ccccc1[C@]1(C)ON(c2ccccc2C(F)(F)F)C1=O | inactive |
| Cc1ccc(S(=O)(=O)Nc2ccc3nc(C)sc3c2)cc1 | active: 14.6 µM |
| CC(C)(C)C(=O)Nc1ccc(-c2cn3ccsc3n2)cc1 | inconclusive: 35.5 µM [falling, single point] |

— PubChem BioAssay AID504444 (National Center for Advancing Translational Sciences (NCATS), 2011)
